In US8895032B2, “Dendritic nano-antioxidants” (Central Michigan University, priority 2009, dated 2014):
Some results were stated once for a whole list of compounds, not compound by compound.

Experiment: DPPH radical assay
Description: The DPPH assay was one of three electron transfer (ET) assays used to determine the antioxidant potential of compound 1 (described in Example 6) in comparison to its monomeric counterpart (syringaldehyde) as well as popular antioxidants. In an ET assay, an antioxidant donates electron(s) to a molecular probe, thus reducing it. From the assay, thermodynamic conversion of antioxidant to antioxidant radical (oxidation) is measured during a fixed time period.
The reduction of DPPH radical was determined for ascorbic acid, Trolox, syringaldehyde, and the compound 1 described in Example 6 as previously reported (Brand-Williams, et al. Lebensm.-Wiss U.-Technol. 1995, 28, 25-30, incorporated herein by reference in its entirety). […] Antioxidant sample (10 μL) was added to 1.0 mL of reagent and the absorbance was monitored at 515 nm until a plateau was reached. […]
The DPPH• scavenging capacity of each antioxidant was evaluated from the plot of the percentage DPPH• remaining when the kinetics reached a steady state as a function of the molar ratios of antioxidant to DPPH•. […]
Antioxidant capacity of the compounds was assessed by the DPPH assay (Brand-Williams, et al. Lebensm. Wiss. Technol. 1995, 28, 25, incorporated herein by reference in its entirety). […]
The free-radical scavenging ability of the antioxidants was evaluated by the DPPH assay, as described above in Example 7.

COc1cc(C=O)cc(OC)c1O [Syringaldehyde]
gradual drop of DPPH• after initial phase (50 μM syringaldehyde, 5 μM compound 1): 1-2 %/min | IC50 (read-out: DPPH IC50 at 120 min, Example 15): > 100 µM
